Drawing on PubChem BioAssay AID1347423 (Functional Genomics Laboratory (NCATS/FGL), 2020), this text covers z-score for 105 sequences.

The whole screen tested about 52,000 sequences, of which about 210 (0.4%) were called active.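 Rule for the calls: active = gene whose silencing raises cell survival under the drug, median off-target-corrected z-score across its silencing RNAs 2 or more; inactive = the rest.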 The list shows a part of the results.

The nature of the experiment: Resistance to Poly (ADP-Ribose) Polymerase inhibitor: Gene Identification via Genome-wide siRNA Screen. Conditions: mouse BRCA2 R2336H ES cells, olaparib, CellTiter-Glo viability; active compounds read high. A digest of the protocol:
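Genome-wide siRNA screen (3 siRNAs/gene, 20 nM) in mouse ES cells carrying hypomorphic BRCA2 R2336H; olaparib 500 nM added 48 h post-transfection, CellTiter-Glo viability 72 h later. Normalized to plate-median negative control; MAD z-scores, gene median, seed-adjusted.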
Turning to GCGGAACCUCAAGUUCAGATT against Taf3, the z-score was inactive: -0.521.

Consider CGUGGAUGAUACCAAAAUGTT against BC055811, for which the z-score is inactive: 0.442.

GGGUAACACCUCAAGUUCATT against Rhag: the z-score is inactive: 2.01.

For the sequence GUGCUUGUGGAGGGUUUCUTT against Ctsg, the z-score is inactive: 1.59.

As for CCAAGGAAUGUUGUGUUUATT against Osp94, the z-score was inactive: -0.82.

As to “GGAAUGGUUUUAUUUUUGGTT against 2610024G14Rik”, the z-score was inactive: -0.36.

GCCUUUUCCCGUCUGGAGATT against Glis1: the z-score was inactive: 1.56.

Consider GGGACAGUGUCCCUUCCUUTT against Cox15, for which the z-score was inactive: -1.53.

Regarding ACUAUCAUGAGUAGGCCCATT against Olfr32, the z-score was inactive: 0.878.

For GCAGCGAGGUUAUCAGUAATT against Sox8, the z-score is inactive: -1.16.

As for “GCAUUAUGGUAGAAGUGGCTT against 4933407P14Rik”, the z-score was inactive: -1.14.

For GGAUAGAAACAUCUUGUCUTT against Mcsp, the z-score is inactive: -0.441.

As for “GGUAUGAUGAUUGUUAGAUTT against 6820402O20Rik”, the z-score was inactive: 1.23.

As to GGACUAUGGAACCUUCACCTT against AI256711, the z-score was inactive: 2.64.

Take GCGAGAAUCUUUUUGAGCUTT against Rpgrip1: the z-score is inactive: -0.554.

Take GGUUUUAUCUGCUCUUCCATT against Cpb2: the z-score was inactive: 1.26.

For CCAAAGACCUAUGUAAGCUTT against Akap1, the z-score was inactive: -1.22.

For the sequence GGUUUCAUGUUCUUUCUAATT against Cxcl14, the z-score was inactive: -1.34.

Regarding GGACACAAUCCAGAACCAGTT against Angpt4, the z-score is inactive: -2.77.

On to “GCAAACCUGAAGUUUAUGATT against 2510038A11Rik”, for which the z-score was inactive: 0.323.

GUUCCACCAGAUUUUCUAATT against V1rc25: the z-score was inactive: 0.825.

As to GGAGAAGUGGAAAAGCAUGTT against Hcls1, the z-score is inactive: 2.44.

For GGGUGUUGUGCGAAAAGAATT against Cxcl1, the z-score was inactive: -2.06.

On to GGGAAAGAAGAAACAAGCATT against Rgs18, for which the z-score was inactive: -0.0332.

On to CCUUUGAUAUGGGCACAACTT against Nox3, for which the z-score is inactive: 0.798.

For GGAUAAUUGGGAUGAUGACTT against Shfdg1, the z-score is inactive: -3.

For the sequence GGAAAAGAACAGAAUAUAGTT against Dcc, the z-score was inactive: -1.82.

In the case of GGAGCCCAGAACAGAUAAUTT against Chit1, the z-score is inactive: 0.18.

Regarding GCCACAGGCCAAGAUCAUUTT against Pafah1b2, the z-score is inactive: 0.256.

In the case of GGAGGGAGAGUGAAUUGUCTT against Hmgn3, the z-score was inactive: -0.746.

As to CUUUUCAUCACGAUCCUCUTT against Olfr998, the z-score is inactive: -0.44.

Turning to GGGUAUCUUCUGGAAAACATT against Angptl4, the z-score was inactive: 0.203.

Regarding GGCCUUCAGUCAAGCAUCATT against Myom1, the z-score was inactive: 1.85.

In the case of GGAAAACCUACCGAAGUUATT against Irf3, the z-score was inactive: 0.489.

Turning to GGAGAUGCCUCACAUGCAGTT against Col8a1, the z-score is inactive: -0.0938.

For the sequence GGAUCAAGUGGCUUCUGUGTT against Olfr1099, the z-score is inactive: -1.67.

As to GGAGACCUCGAUCACAUCATT against Dutp, the z-score was inactive: -0.819.

Regarding GUUUAUGGCCUCCUGUUGCTT against Gpbar1, the z-score was inactive: 1.47.

For CCUUAGGAUCGUCUUAUUATT against Zic2, the z-score was inactive: -0.309.

“GGAACAUCAAUCCAAAUCCTT against 4930432H15Rik”: the z-score was inactive: 0.0472.

In the case of “CCGGUCACCAAAUGACUUATT against D830013H12”, the z-score is inactive: -0.321.

For GGUCAUCGUGUGCAACCUCTT against Zcchc3, the z-score is inactive: -0.52.

With CGCAUUUAACUCCUUACUCTT against Slc25a12, the z-score was inactive: 1.09.

In the case of GGAUUACCUGAACAGCGAUTT against Atbf1, the z-score was inactive: 0.52.

For the sequence CGUAUAUUUUGGGCCAACATT against Zfp612, the z-score was inactive: 0.368.

As for GGCCAGAAAGGCAGCAAAGTT against Msgn1, the z-score is inactive: 1.99.

Turning to GGUCUAUGCUUUGCUUUACTT against Dmap1, the z-score is inactive: -0.815.

On to GGCUUGCUUGUUCAGACACTT against Olfr1324, for which the z-score was inactive: 0.478.

Consider GGUGUUGAUCCUAUUAUUUTT against Nup54, for which the z-score was inactive: -2.59.

For the sequence GGCUUCCAAGCAAAAAUCUTT against Krtcap2, the z-score is inactive: -0.885.

Turning to GGUAAAAUUUGACGACACGTT against Klhl6, the z-score was inactive: 0.299.

As for CCCAAGUGAACUAAUAAAGTT against Mrps15, the z-score was inactive: -0.162.

Regarding GCUGGUGAACCAAAAACUCTT against Ccdc3, the z-score was inactive: -0.0868.

Turning to GUGUGAACACAAUCAACCUTT against Ifna6, the z-score was inactive: -0.925.

For CCUAACAUUACUGAUGAUUTT against Narg2, the z-score was inactive: -1.32.

As for GGACAAGAAGAUAUUACUUTT against Ocln, the z-score is inactive: -0.48.

As for “GGUCUGUAAGCUACCUAAUTT against B430216B18Rik”, the z-score was inactive: 1.53.

Regarding GGCUUCUAUUGCCAUAAUGTT against Olfr380, the z-score was inactive: 0.696.

As for CCAGUGCGUUUGAGAUUGATT against Aanat, the z-score was inactive: 1.27.

With GCUUCAAGAGACAAAACUCTT against Wsb1, the z-score was inactive: 0.238.

Take GGAGAUCAUGUUUAAGAAUTT against Nicn1: the z-score is inactive: 0.00115.

Regarding “GGAAUGCUUUAUAAGUACATT against A930031F18Rik”, the z-score was inactive: -1.29.

As for GGCUCUGGUGAACUACAUGTT against Olfr1378, the z-score was inactive: -0.501.

In the case of GGAAUGACCAAGAAACAACTT against Recql4, the z-score is inactive: -0.392.

With GGAUCAAAAACACAUACUUTT against Emr4, the z-score is inactive: -1.79.

Turning to GGCCCGGAAACCUUUGCAUTT against Efna4, the z-score was inactive: -0.0635.

Consider GCUUGUCAAGUUUGUGAGCTT against Sec14l4, for which the z-score was inactive: -0.515.

“CCUACUCUAUCCCAAGGUCTT against 1700027D21Rik”: the z-score was inactive: 1.08.

With GCUUGAUGGUAAAAAGGUUTT against Spg3a, the z-score was inactive: 0.836.

Take “GGAGACCUCAGCUGAUAUUTT against 1110006I15Rik”: the z-score was inactive: 0.669.

With “GGGUUGGCUGAGGUAAUGGTT against G431004K08Rik”, the z-score is inactive: -0.874.

As to “GGCUGCUUAACCUUGAUAATT against 4932412H11Rik”, the z-score is inactive: -2.24.

For GGGCAAAACCAUCUUCCGGTT against Scn5a, the z-score is inactive: 0.0326.

For the sequence GGGUAUUCUUUCAAUCAUATT against Fgf12, the z-score was inactive: -1.32.

As for GGCUCUUGUUGUGAAGAAGTT against Tm4sf8, the z-score was inactive: -0.48.

As for GGUCAAAGUCUAGGAGUUUTT against Spp1, the z-score is inactive: 0.364.

Regarding GCUGAAUCACUACCAGUCATT against Zfp462, the z-score is inactive: 0.0788.

For CCUCAUGUUAAUCUGGAGATT against Gabre, the z-score was inactive: -0.848.

For GGAAGAUCUGAAGUCAAUCTT against Mvk, the z-score was inactive: 0.321.

In the case of GCAAACAAUGCAACAAGCATT against Adam1b, the z-score is inactive: 0.273.

Take CCUCACCAGGUAAAUUUUUTT against Ssa2: the z-score is inactive: 0.157.

With GGCUUUCAAGACACUUCUUTT against Ccl6, the z-score was inactive: 0.258.

In the case of GGCAUCAAUAACUCAACAUTT against Slc5a8, the z-score is inactive: 0.653.

In the case of “GGAUGACAGUGGGAAGAAGTT against 1110029E03Rik”, the z-score is inactive: 0.305.

Consider “GGAUUAGAGGUUAUGGUAATT against A630098G03Rik”, for which the z-score is inactive: -1.61.

With CGUGGAAAGAAAAUUAUCATT against Psmd11, the z-score was inactive: -2.85.

Regarding GGGUGGAAGAAAGGUAAAGTT against Cd68, the z-score was inactive: -0.876.

On to GGCACGAAGUCCGAGAAAUTT against Hs2st1, for which the z-score was inactive: -0.726.

CCAUCGUCUAUCAUUUAGUTT against Six4: the z-score is inactive: 1.14.

On to GGUUCUAAUUAGAGAAACATT against Tcte1, for which the z-score is inactive: 0.0177.

Consider CCGUAUGGACUGGUUUACUTT against Chrdl1, for which the z-score is inactive: 0.484.

For the sequence GGAAGAUUUCCUCUCCAAGTT against Dnajd1, the z-score was inactive: -0.48.

As to CCAACCUAAACAAUGCAUUTT against Actn4, the z-score is inactive: -0.603.

For the sequence GGCAACUUCAUGGGUUUCATT against Tyr, the z-score is inactive: 0.142.

For GGAUUUGAUUCCGCCAACGTT against Pon2, the z-score was inactive: -0.0028.

As for GCCAAGUGGUGACAUCAACTT against Ralgds, the z-score is inactive: -0.711.

Take GGACAGCAAGACAGAAAACTT against Csf2rb2: the z-score was inactive: 0.00978.

In the case of GCCAUGACCAUCUUUCUCUTT against Olfr1413, the z-score was inactive: 1.79.

As for UACUCUGGUAACACCCACUTT against Olfr98, the z-score was inactive: 0.252.

As for GCACGGUCAAGUUUUGAUUTT against Prkaa2, the z-score is inactive: 0.432.

Turning to “GGGUCCAAAAGAAAAGUGUTT against 2810002I04Rik”, the z-score was inactive: 0.388.

Regarding CGUCAUUCACCCUAAGCCATT against Odd1, the z-score was inactive: 1.43.

For GGUAAAUGAUAUUCAUGGUTT against Pdlim2, the z-score was inactive: 0.311.

GGAAAUCUUACAGACUGAGTT against Grid2: the z-score was active: 2.5.

Consider GGAGUUCGUCAACAAGAAGTT against Dll1, for which the z-score was inactive: 1.41.
